In this assay the target is T1, Transglutaminase 3 (human (endogenous in A431)) (UniProt Q08188).
T1 sequence: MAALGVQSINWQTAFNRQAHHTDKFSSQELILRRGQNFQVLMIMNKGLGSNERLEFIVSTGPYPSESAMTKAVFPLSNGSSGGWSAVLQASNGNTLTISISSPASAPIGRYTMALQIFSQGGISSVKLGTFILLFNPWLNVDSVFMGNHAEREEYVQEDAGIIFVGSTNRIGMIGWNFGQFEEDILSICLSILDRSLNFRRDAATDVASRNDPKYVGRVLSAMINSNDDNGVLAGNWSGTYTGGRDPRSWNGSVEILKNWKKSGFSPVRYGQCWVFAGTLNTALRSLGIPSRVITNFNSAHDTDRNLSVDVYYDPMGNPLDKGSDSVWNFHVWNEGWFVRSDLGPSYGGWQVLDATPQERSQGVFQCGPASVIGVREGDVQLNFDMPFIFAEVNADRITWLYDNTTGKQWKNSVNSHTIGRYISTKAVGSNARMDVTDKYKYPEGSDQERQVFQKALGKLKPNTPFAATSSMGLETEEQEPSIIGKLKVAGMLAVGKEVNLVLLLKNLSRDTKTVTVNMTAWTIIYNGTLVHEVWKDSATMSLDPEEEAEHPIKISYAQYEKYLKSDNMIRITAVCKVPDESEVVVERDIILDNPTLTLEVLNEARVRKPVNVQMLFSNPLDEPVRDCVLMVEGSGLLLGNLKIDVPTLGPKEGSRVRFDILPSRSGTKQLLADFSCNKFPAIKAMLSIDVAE
Briefly: co-IP; cell lysate in IP lysis buffer with EDTA-free protease inhibitors, incubated with protein A/G beads and indicated antibodies overnight at 4 °C, washed thrice, western blotting; A431 cells according to the results and legend (the methods name HaCaT cells). On the technique in general: A western blot detects proteins with antibodies after separation by electrophoresis.

The chains behind the UniProt entries cited, without tags or fusion partners.
UniProt P13647: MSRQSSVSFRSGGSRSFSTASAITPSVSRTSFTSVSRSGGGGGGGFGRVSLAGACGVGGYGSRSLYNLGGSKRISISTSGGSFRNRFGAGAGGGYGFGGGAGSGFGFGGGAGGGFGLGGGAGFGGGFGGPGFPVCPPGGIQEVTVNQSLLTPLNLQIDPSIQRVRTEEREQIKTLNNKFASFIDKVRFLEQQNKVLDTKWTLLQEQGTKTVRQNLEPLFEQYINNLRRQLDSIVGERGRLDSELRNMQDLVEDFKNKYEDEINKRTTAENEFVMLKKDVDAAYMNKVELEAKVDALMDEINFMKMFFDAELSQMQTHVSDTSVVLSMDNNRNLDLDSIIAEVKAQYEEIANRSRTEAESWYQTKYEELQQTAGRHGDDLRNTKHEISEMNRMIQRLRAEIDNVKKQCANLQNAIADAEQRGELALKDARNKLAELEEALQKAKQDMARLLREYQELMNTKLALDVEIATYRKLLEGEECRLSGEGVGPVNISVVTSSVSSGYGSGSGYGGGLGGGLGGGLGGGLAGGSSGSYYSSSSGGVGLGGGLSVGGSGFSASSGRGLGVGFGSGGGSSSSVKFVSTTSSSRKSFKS
UniProt P13645: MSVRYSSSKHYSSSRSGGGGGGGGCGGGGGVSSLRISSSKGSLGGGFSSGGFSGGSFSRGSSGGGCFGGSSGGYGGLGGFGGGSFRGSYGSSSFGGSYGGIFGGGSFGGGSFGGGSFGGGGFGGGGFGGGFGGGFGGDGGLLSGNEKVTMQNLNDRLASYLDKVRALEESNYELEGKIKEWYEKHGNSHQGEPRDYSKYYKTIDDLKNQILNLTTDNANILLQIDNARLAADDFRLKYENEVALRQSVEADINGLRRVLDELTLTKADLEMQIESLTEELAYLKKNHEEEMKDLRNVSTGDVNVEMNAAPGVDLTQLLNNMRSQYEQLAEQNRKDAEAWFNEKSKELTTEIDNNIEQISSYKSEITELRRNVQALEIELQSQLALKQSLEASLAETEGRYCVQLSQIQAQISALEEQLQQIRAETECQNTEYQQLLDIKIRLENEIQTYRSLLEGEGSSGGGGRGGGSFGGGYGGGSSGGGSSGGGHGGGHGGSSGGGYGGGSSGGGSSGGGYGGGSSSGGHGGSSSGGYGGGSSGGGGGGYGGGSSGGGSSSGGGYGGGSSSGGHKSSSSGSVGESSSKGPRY

No constants are given. Whether binding was seen depends on the method and setting. In cells and extracts the contact can be indirect. Sequences can lack the tags named with a protein.

For the molecule KRT5 (from UniProt P13647 1-590), the binding entry is recorded as “no binding”.

For “Keratin (KRT) 10 (from UniProt P13645 1-584)”, the binding result is “no binding”.

B1: loricrin (protein, UniProt P23490 1-312)
chain: MSYQKKQPTPQPPVDCVKTSGGGGGGGGSGGGGCGFFGGGGSGGGSSGSGCGYSGGGGYSGGGCGGGSSGGGGGGGIGGCGGGSGGSVKYSGGGGSSGGGSGCFSSGGGGSGCFSSGGGGSSGGGSGCFSSGGGGSSGGGSGCFSSGGGGFSGQAVQCQSYGGVSSGGSSGGGSGCFSSGGGGGSVCGYSGGGSGCGGGSSGGSGSGYVSSQQVTQTSCAPQPSYGGGSSGGGGSGGSGCFSSGGGGGSSGCGGGSSGIGSGCIISGGGSVCGGGSSGGGGGGSSVGGSGSGKGVPICHQTQQKQAPTWPSK
On to B1, for which the binding entry is listed as “no binding”.

B2: involucrin (protein, UniProt P07476 1-585)
chain: MSQQHTLPVTLSPALSQELLKTVPPPVNTHQEQMKQPTPLPPPCQKVPVELPVEVPSKQEEKHMTAVKGLPEQECEQQQKEPQEQELQQQHWEQHEEYQKAENPEQQLKQEKTQRDQQLNKQLEEEKKLLDQQLDQELVKRDEQLGMKKEQLLELPEQQEGHLKHLEQQEGQLKHPEQQEGQLELPEQQEGQLELPEQQEGQLELPEQQEGQLELPEQQEGQLELPEQQEGQLELPQQQEGQLELSEQQEGQLELSEQQEGQLKHLEHQEGQLEVPEEQMGQLKYLEQQEGQLKHLDQQEKQPELPEQQMGQLKHLEQQEGQPKHLEQQEGQLEQLEEQEGQLKHLEQQEGQLEHLEHQEGQLGLPEQQVLQLKQLEKQQGQPKHLEEEEGQLKHLVQQEGQLKHLVQQEGQLEQQERQVEHLEQQVGQLKHLEEQEGQLKHLEQQQGQLEVPEQQVGQPKNLEQEEKQLELPEQQEGQVKHLEKQEAQLELPEQQVGQPKHLEQQEKHLEHPEQQDGQLKHLEQQEGQLKDLEQQKGQLEQPVFAPAPGQVQDIQPALPTKGEVLLPVEHQQQKQEVQWPPKHK
With B2, the binding entry is on record as “no binding”.

The values are drawn from article PMC11001918.
